Results as given in patent publication US8586743B2, “Labeling reagents and methods of their use” (Life Technologies Corporation, priority 2007, dated 2013).

Tested on: Goat anti-Mouse antibody
Assay: Goat anti-Mouse antibody labeling (degree of labeling)
Conditions: for Degree of Labeling (antibody, long incubation): room temperature

With `N=c1ccc2c(-c3ccc(C(=O)Oc4c(Cl)cc(S(=O)(=O)O)cc4Cl)cc3C(=O)O)c3ccc(N)c(S(=O)(=O)O)c3oc-2c1S(=O)(=O)O` [Compound 102] as the compound, how does the “Goat anti-Mouse Antibody Degree of Labeling” value (10 mM HEPES buffer pH 8.2, 0.2M NaCl, Molar Ratio 5, room temperature 1 hour) read?
The value was 2.1.

What about the “Goat anti-Mouse Antibody Degree of Labeling” value (10 mM HEPES buffer pH 8.2, 0.2M NaCl, Molar Ratio 10, room temperature 1 hour) of the same compound?
The value was 3.2.

And the “Goat anti-Mouse Antibody Degree of Labeling” value (10 mM HEPES buffer pH 8.2, 0.2M NaCl, Molar Ratio 15, room temperature 1 hour)?
The value was 4.8.

What about the “Goat anti-Mouse Antibody Degree of Labeling” value (10 mM HEPES buffer pH 8.2, 0.2M NaCl, Molar Ratio 20, room temperature 1 hour) of the same compound?
Its value is 5.0.

And the “Degree of Labeling (antibody, long incubation)” value (10 mM HEPES buffer pH 8.2, 0.2M NaCl, molar ratio of 12, incubation 20 hrs)?
The value was 8.6.

And the “Goat anti-Mouse Antibody Degree of Labeling” value (20 mM Tris buffer pH 8.6, Molar Ratio 5, room temperature 1 hour)?
Its value is 2.2.

What about the “Goat anti-Mouse Antibody Degree of Labeling” value (20 mM Tris buffer pH 8.6, Molar Ratio 10, room temperature 1 hour) of the same compound?
Its value is 3.0.

What about the “Goat anti-Mouse Antibody Degree of Labeling” value (20 mM Tris buffer pH 8.6, Molar Ratio 15, room temperature 1 hour) of the same compound?
Its value is 3.5.

What about the “Goat anti-Mouse Antibody Degree of Labeling” value (20 mM Tris buffer pH 8.6, Molar Ratio 20, room temperature 1 hour) of the same compound?
The value was 3.8.

And the “Degree of Labeling (antibody, long incubation)” value (20 mM Tris buffer pH 8.6, molar ratio of 12, incubation 12 hrs)?
Its value is 7.5.

What about the “Degree of Labeling (antibody, long incubation)” value (25 mM phosphate buffer pH 7.2, molar ratio of 12, incubation 6 hrs) of the same compound?
Its value is 6.5.

What about the “Goat anti-Mouse Antibody Degree of Labeling” value (25 mM phosphate buffer pH 8.6, Molar Ratio 5, room temperature 1 hour) of the same compound?
The value was 4.5.

And the “Goat anti-Mouse Antibody Degree of Labeling” value (25 mM phosphate buffer pH 8.6, Molar Ratio 10, room temperature 1 hour)?
The value was 7.5.

What about the “Goat anti-Mouse Antibody Degree of Labeling” value (25 mM phosphate buffer pH 8.6, Molar Ratio 15, room temperature 1 hour) of the same compound?
Its value is 10.0.

What about the “Goat anti-Mouse Antibody Degree of Labeling” value (25 mM phosphate buffer pH 8.6, Molar Ratio 20, room temperature 1 hour) of the same compound?
Its value is 12.6.

What about the “Degree of Labeling (antibody, long incubation)” value (25 mM phosphate buffer pH 8.6, molar ratio of 12, incubation 3 hrs) of the same compound?
Its value is 8.9.
